Results as given in PMC10943695 (Frontiers in Pharmacology, 2024).

Test: general procedure: solution-phase peptide synthesis; HATU/DIEA

Substance: PEPTIDE1{[BndPEG3Pr].D.P.V.[KSPi11N]}$$$$V2.0
- final LC-MS purity (conjugation step, LC-MS, TFA salt (intermediates), disodium salt (Compound 4)): 99 % purity
- conjugation yield (conjugation step, TFA salt (intermediates), disodium salt (Compound 4)): 78 % yield
- purity (crude or final not stated) (late stage modification step, LC-MS, TFA salt (intermediates), disodium salt (Compound 4)): 100% purity
- step yield (late stage modification step, TFA salt (intermediates), disodium salt (Compound 4)): 99% yield

Substance: PEPTIDE1{[BndPEG3Pr].D.P.V.[MMAE-O]}$$$$V2.0
- purity (crude or final not stated) (late stage modification step, LC-MS, disodium salt): 96% purity
- step yield (late stage modification step, disodium salt): 96% yield

Substance: Trifluoroacetic acid.N-[(benzyloxy)carbonyl]-N-methyl-L-valyl-N-[(3R,4S,5S)-3-methoxy-1-{(2S)-2-[(1R,2R)-1-methoxy-2-methyl-3-oxo-3-{[(1S,2R)-1-phenyl-1-(L-valyloxy)propan-2-yl]amino}propyl]pyrrolidin-1-yl}-5-methyl-1-oxoheptan-4-yl]-N-methyl-L-valinamide (1/1)
- crude LC-MS purity (late stage modification step, LC-MS, TFA salt): 100 % purity

HELM strings list residues between dots; [ac] is acetyl, [am] amide, other brackets name non-standard units.
